From the supplement of paper PMC12823440, “Inhibitors supercharge kinase turnover through native proteolytic circuits” (Nature, 2025)
Where a name gives a salt, the structure may show the parent alone. This is one part of the list. The calls rarely recur for the same compound in another form.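 Kinases, fused to nanoluciferase, were expressed in K562 cells; luminescence was measured every 4 h from 2 to 18 h as percent of control (DMSO = 100%, positive control = 0%). A time point is decreased if signal falls significantly (2 sigma). Hits were called by the authors by a rule that is not shown; the count of time points alone does not decide it.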

Sequences of proteins named here, by UniProt entry; tags and fusion partners are left off. A change or cut given only in a name is not applied to a line headed by its entry.
UniProt P06241, whole entry, looked up: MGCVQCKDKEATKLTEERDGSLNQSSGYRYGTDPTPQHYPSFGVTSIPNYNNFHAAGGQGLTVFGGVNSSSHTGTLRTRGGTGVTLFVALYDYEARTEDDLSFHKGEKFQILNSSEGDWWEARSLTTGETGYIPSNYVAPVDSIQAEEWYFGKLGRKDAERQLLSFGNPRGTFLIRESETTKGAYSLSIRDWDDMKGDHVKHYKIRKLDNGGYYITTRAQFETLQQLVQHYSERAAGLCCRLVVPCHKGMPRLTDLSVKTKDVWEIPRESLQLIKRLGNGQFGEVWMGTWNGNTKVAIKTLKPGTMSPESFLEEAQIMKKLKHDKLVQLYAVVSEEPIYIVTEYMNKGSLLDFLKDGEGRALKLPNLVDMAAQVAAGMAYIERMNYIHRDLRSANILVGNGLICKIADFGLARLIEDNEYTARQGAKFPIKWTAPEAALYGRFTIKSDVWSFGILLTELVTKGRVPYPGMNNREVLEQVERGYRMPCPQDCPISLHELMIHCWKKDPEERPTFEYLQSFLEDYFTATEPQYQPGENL
UniProt P49840: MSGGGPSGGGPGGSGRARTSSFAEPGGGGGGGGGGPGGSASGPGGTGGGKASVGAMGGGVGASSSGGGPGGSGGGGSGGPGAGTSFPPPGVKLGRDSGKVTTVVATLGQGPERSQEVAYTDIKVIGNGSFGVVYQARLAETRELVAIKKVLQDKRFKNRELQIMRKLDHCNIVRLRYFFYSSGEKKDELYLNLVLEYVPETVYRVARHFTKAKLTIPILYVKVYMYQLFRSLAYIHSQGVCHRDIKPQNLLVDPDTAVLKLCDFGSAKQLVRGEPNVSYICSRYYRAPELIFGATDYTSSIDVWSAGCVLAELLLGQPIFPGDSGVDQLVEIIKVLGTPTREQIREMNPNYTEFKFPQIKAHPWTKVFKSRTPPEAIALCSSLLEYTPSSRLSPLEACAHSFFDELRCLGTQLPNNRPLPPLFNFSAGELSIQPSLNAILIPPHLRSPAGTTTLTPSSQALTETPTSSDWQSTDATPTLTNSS
UniProt P23458: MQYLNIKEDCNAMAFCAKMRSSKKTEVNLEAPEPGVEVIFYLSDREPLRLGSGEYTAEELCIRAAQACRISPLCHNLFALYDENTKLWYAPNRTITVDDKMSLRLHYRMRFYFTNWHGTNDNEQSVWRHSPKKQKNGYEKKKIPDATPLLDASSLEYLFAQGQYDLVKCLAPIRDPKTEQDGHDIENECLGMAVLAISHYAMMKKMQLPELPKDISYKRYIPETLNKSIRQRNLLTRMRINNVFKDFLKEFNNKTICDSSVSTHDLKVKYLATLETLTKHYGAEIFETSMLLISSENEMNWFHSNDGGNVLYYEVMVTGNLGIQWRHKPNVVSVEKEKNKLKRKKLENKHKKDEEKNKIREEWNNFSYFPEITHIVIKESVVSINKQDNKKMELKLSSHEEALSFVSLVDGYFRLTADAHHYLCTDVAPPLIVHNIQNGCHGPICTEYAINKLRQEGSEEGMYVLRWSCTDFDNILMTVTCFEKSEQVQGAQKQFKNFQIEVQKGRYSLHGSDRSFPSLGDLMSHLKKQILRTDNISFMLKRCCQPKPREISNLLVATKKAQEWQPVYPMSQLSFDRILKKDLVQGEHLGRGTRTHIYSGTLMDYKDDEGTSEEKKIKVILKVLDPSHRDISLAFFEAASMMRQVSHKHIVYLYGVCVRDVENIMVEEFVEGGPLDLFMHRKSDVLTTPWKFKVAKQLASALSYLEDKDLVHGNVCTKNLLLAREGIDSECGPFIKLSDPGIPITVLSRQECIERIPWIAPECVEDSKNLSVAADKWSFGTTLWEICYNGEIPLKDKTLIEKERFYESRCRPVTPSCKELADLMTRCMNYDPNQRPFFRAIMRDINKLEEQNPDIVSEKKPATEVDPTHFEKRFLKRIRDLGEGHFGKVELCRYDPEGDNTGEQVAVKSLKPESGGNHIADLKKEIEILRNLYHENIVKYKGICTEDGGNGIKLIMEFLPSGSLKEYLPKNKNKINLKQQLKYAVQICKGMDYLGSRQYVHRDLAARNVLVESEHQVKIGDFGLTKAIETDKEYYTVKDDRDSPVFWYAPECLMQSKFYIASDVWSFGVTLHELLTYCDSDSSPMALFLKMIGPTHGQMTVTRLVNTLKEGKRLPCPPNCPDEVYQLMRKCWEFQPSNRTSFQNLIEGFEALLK
UniProt P06239: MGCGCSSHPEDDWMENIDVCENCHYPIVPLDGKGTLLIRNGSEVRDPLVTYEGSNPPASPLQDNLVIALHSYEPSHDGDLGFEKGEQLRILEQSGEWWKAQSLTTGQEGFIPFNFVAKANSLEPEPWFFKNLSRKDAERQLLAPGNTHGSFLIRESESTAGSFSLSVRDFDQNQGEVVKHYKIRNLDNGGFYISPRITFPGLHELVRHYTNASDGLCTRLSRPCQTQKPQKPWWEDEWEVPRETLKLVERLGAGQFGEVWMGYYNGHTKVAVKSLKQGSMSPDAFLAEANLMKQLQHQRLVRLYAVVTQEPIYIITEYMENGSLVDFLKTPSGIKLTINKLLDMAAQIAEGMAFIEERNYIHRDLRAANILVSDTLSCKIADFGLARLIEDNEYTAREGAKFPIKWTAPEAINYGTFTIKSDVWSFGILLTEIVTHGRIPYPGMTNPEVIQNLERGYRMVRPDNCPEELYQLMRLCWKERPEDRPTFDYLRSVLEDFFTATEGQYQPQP
UniProt P53667: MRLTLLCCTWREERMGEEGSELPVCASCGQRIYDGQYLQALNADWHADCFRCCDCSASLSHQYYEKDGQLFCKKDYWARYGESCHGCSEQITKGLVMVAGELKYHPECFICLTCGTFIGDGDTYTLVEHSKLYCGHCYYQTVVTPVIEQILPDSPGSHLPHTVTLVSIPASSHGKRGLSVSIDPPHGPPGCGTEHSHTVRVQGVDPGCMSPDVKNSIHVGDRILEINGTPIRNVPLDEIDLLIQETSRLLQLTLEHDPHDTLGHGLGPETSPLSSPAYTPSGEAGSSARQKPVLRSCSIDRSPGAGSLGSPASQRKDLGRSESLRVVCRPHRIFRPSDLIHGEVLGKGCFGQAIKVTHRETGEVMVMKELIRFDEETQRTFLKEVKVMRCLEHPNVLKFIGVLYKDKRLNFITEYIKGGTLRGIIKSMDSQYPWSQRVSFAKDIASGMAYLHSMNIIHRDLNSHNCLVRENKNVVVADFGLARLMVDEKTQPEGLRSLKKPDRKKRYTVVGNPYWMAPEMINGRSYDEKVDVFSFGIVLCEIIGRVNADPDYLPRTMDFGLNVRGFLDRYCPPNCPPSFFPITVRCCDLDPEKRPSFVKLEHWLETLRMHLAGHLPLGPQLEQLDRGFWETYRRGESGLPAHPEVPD
UniProt P53671: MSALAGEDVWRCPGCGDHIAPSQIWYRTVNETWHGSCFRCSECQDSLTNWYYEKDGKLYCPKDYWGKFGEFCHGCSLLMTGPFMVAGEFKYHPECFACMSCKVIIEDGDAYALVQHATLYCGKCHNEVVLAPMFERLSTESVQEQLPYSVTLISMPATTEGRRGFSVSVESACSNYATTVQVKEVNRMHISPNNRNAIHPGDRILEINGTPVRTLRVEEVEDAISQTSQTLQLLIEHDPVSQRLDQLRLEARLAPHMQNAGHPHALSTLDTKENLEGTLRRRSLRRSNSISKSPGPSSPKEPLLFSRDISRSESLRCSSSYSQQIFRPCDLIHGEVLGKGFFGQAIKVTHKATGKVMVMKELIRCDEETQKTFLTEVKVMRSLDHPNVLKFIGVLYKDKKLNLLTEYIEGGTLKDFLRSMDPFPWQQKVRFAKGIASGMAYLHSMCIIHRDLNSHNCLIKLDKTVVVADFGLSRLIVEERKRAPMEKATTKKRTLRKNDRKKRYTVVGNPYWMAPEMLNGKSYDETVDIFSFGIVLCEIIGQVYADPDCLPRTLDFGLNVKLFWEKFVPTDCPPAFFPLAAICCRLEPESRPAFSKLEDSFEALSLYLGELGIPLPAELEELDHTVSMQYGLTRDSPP
UniProt Q12851: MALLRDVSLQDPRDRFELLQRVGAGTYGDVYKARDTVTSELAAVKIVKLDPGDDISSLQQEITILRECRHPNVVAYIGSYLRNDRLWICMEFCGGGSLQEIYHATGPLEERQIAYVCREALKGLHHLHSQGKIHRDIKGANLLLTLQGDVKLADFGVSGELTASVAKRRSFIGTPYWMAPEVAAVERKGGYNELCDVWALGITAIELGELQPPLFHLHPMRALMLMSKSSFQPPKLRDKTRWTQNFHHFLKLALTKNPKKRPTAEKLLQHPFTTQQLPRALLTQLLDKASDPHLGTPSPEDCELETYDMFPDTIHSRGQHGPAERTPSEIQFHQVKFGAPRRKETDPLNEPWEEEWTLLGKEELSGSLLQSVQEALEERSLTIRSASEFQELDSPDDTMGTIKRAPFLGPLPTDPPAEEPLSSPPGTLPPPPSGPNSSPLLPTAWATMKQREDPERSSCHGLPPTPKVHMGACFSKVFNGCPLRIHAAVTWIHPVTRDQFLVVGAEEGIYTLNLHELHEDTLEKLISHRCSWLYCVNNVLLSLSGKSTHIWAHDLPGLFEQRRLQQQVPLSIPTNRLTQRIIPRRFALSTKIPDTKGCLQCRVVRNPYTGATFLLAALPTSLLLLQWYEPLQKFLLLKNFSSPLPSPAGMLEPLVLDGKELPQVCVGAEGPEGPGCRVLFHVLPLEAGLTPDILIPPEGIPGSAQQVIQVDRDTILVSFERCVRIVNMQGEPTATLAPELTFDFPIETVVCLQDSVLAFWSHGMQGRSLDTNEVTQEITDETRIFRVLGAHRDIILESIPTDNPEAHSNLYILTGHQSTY
UniProt P49137, whole entry, looked up: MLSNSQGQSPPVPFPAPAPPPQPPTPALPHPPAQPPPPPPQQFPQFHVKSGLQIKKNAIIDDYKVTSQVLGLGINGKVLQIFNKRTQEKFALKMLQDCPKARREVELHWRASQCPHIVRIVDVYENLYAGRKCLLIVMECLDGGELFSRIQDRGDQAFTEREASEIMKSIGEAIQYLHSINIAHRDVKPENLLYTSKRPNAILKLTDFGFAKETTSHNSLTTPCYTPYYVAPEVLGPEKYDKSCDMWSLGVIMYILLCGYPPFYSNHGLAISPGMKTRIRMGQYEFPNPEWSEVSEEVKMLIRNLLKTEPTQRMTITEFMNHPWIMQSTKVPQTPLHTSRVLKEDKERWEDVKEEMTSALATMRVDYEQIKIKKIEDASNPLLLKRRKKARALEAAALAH
UniProt Q9BUB5: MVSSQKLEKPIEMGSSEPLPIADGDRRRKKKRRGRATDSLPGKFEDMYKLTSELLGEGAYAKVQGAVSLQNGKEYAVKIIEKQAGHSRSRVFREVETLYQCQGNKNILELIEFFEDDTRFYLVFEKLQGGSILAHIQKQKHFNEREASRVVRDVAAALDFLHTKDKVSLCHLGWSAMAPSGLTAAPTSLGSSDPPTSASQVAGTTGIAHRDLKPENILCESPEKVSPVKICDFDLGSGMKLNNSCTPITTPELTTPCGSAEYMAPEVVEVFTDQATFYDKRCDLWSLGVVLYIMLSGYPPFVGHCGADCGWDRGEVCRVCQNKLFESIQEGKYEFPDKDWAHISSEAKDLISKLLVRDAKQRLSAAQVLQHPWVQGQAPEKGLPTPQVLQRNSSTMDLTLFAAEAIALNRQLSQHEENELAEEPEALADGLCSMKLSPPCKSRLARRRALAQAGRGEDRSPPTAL
UniProt Q16620, whole entry, looked up: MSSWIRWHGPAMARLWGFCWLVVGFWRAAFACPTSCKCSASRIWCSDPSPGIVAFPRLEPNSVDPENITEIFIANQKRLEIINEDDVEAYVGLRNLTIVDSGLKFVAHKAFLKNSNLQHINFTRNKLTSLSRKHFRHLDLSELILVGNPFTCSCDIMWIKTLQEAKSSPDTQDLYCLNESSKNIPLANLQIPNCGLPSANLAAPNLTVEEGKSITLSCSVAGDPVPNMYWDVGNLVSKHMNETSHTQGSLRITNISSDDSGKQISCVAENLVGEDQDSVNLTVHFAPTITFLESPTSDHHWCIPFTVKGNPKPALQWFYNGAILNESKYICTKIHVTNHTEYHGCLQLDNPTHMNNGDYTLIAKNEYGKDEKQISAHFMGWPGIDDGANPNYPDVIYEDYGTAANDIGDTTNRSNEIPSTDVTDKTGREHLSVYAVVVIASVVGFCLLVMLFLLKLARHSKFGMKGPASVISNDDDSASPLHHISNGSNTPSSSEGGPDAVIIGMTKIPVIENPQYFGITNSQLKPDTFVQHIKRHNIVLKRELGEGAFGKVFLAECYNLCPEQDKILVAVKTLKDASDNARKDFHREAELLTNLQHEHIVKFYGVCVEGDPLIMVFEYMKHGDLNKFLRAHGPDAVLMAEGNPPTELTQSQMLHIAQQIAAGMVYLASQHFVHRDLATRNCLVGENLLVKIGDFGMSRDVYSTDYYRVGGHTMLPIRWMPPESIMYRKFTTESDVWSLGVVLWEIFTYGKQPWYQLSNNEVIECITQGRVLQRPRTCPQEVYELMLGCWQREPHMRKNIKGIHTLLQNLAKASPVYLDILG

Tests used:
Assay in all cases: number of time points (of 5) at which kinase-Nluc abundance scored as decreased, DMSO-normalised (count); higher = more persistent destabilization
Settings in all cases: K562; 2-18 h
[1] = target: FLT3 (UniProt P36888)
[2] = target: FYN (UniProt P06241)
[3] = target: GSK3A (UniProt P49840)
[4] = target: HER2 (UniProt P04626)
[5] = target: INSRR (UniProt P14616)
[6] = target: IRAK3 (UniProt Q9Y616)
[7] = target: JAK1 (UniProt P23458)
[8] = target: LCK (UniProt P06239)
[9] = target: LIMK1 (UniProt P53667)
[10] = target: LIMK2 (UniProt P53671)
[11] = target: LMTK2 (UniProt Q8IWU2)
[12] = target: LYN (UniProt P07948)
[13] = target: MAP2K1 (UniProt Q02750)
[14] = target: MAP2K2 (UniProt P36507)
[15] = target: MAP4K2 (UniProt Q12851)
[16] = target: MAPK1 (UniProt P28482)
[17] = target: MAPK4 (UniProt P31152)
[18] = target: MAPKAPK2 (UniProt P49137)
[19] = target: MKNK1 (UniProt Q9BUB5)
[20] = target: NTRK2 (UniProt Q16620)

Structure (SMILES)	number of time points [1]	number of time points [2]	number of time points [3]	number of time points [4]	number of time points [5]	number of time points [6]	number of time points [7]	number of time points [8]	number of time points [9]	number of time points [10]	number of time points [11]	number of time points [12]	number of time points [13]	number of time points [14]	number of time points [15]	number of time points [16]	number of time points [17]	number of time points [18]	number of time points [19]	number of time points [20]
NC[C@@](O)(c1ccc(Cl)cc1)c1ccc(-c2cn[nH]c2)cc1 (10 µM)	0	0	0	0	0	0	0	0	0	0	0	0	0	0	0	0	0	0	0	0
Cn1c(=O)c2c(nc(S(C)(=O)=O)n2C)n(CC#Cc2cccc(O)c2)c1=O (2.5 µM)	0	2	0	1	1	0	0	0	0	0	2	0	0	0	0	0	0	0	0	0
CCN(CC)CCCC(C)Nc1nc(C)cc(Nc2ccc3nc(C)cc(N)c3c2)n1 (stereo not given) (10 µM)	0	0	0	0	0	0	0	0	0	0	0	0	0	0	0	0	0	0	0	0
C=C1CCC[C@]2(C)C=C3OC(=O)C(C)=C3C[C@@H]12 [Atractylenolide I] (10 µM)	0	0	0	0	0	0	0	0	0	0	0	0	0	0	0	0	0	0	0	0
Cc1cccc(-c2[nH]ncc2-c2ccnc3ccccc23)n1 (10 µM)	0	0	0	0	0	0	0	0	0	0	0	0	0	0	0	0	0	0	0	0
CCCCCC(=O)N[C@@H](Cc1ccc(O)cc1)C(=O)OC (10 µM)	0	0	0	0	0	0	0	0	0	0	0	0	0	0	0	0	0	0	0	0
COC(=O)Nc1ccc(-c2nc(N3CCOCC3)c3cnn(C4CCN(C(=O)OC)CC4)c3n2)cc1 (10 µM)	0	0	0	0	0	0	0	0	0	0	0	0	0	0	0	0	0	0	0	0
Cc1cccc(/C=N/Nc2cc(N3CCOCC3)n3nc(-c4ccncc4)cc3n2)c1 (10 µM)	0	0	0	0	0	0	1	0	0	0	0	0	0	0	0	0	0	0	0	0
C=CC(=O)Nc1cc(Nc2nccc(-c3cn(C)c4ccccc34)n2)c(OC)cc1OCCN(C)C [Rezivertinib] (2.5 µM)	0	0	0	1	0	0	0	0	0	0	0	0	0	0	0	0	0	0	0	0
CO[C@H]1CC[C@H](N2C(=O)CNc3ncc(-c4ccc(C(C)(C)O)nc4)nc32)CC1 (2.5 µM)	0	0	0	0	0	0	0	0	0	0	0	0	0	0	0	0	0	0	0	0
COC(=O)Nc1ccc(-c2nc(N3CCOCC3)c3cnn(C4CCN(Cc5cccnc5)CC4)c3n2)cc1 (10 µM)	0	0	0	0	0	0	0	0	0	0	0	0	0	0	0	0	0	0	0	0
CCN1CCN(Cc2cnc(Nc3cc(-c4cc(F)c5nc(C)n(C(C)C)c5c4)c(F)cn3)nc2)CC1 (10 µM)	0	0	0	1	0	0	3	0	0	0	3	0	0	0	0	0	0	0	0	0
Oc1c(F)cc(-c2cnccc2-c2ccc(N3CCOCC3)cc2)cc1F (10 µM)	0	0	0	0	0	0	0	0	0	0	0	0	0	0	0	0	0	0	0	0
COc1ccc2c3n(c(=NC(=O)c4cccnc4)nc2c1OC)CCN3 (2 µM)	0	0	0	0	0	0	0	0	0	0	0	0	0	0	0	0	0	0	0	0
COc1cc2c(cc1Nc1ncc(C(N)=O)c(Nc3c(F)cccc3C(F)(F)F)n1)CN(C)CC2 (2.5 µM)	0	0	0	0	0	0	0	0	0	0	0	0	0	0	0	0	0	0	0	0
Cc1cnc(NC(=O)c2cc(Oc3cnc(C(=O)N(C)C)nc3)c3cc(C)oc3c2)cn1 (10 µM)	0	0	0	0	0	0	0	0	0	0	0	0	0	0	0	0	0	0	0	0
O=C(O)[C@H]1O[C@@H](Oc2cc3oc(-c4ccc(O)cc4)cc(=O)c3c(O)c2O)[C@H](O)[C@@H](O)[C@@H]1O [Scutellarin] (10 µM)	0	0	0	0	0	0	0	0	0	0	0	0	0	0	0	0	0	0	0	0
CNC(=O)c1cc2c(Oc3ccc(NC(=O)C4(C(=O)Nc5ccc(F)cc5)CC4)cc3)ccnc2cc1OC (2.5 µM)	1	3	0	0	3	2	2	0	3	1	0	0	0	0	0	0	0	1	2	1
C=CC(=O)Nc1cc(Nc2nccc(-c3cn(C)c4ccccc34)n2)c(OC)cc1N(C)CCNC [AZ7550 Mesylate] (2.5 µM)	0	0	0	4	0	0	0	0	3	0	0	0	0	0	0	0	0	0	1	0
O=C1Nc2ccc(I)cc2/C1=C/c1cc(Br)c(O)c(Br)c1 (10 µM)	0	0	1	2	1	0	0	0	0	1	0	1	0	3	0	1	1	0	0	0
O=C1CC[C@H](NC(=O)Cc2ccccc2)C(=O)N1 [Antineoplaston A10] (10 µM)	0	0	0	0	0	0	0	0	0	0	0	0	0	0	0	0	0	0	0	0
CC(Cc1ccc(O)c(O)c1)C(C)Cc1ccc(O)c(O)c1 (stereo not given) [Nordihydroguaiaretic acid] (2.5 µM)	0	0	0	0	0	0	0	0	0	0	0	0	0	0	0	0	0	0	0	0
NC(=O)c1ccc(N(C(N)=O)c2c(F)cccc2F)nc1-c1ccc(F)cc1F (10 µM)	0	0	0	0	0	0	0	0	0	0	0	0	0	0	0	0	0	0	0	0
Cn1c2cc([S+](C)[O-])sc2c2cnn(Cc3cccc(N)c3)c(=O)c21 (stereo not given) (2.5 µM)	0	0	0	0	0	0	0	0	0	0	0	0	0	0	0	0	0	0	0	0
Brc1ccc(CSc2nc3ccccc3o2)cc1 [BMP signaling agonist sb4] (10 µM)	0	0	0	0	0	0	0	0	0	0	0	0	0	0	0	0	0	0	0	0

Reformatted as a markdown table: entries from further up.

| Structure (SMILES) | number of time points [1] | number of time points [2] | number of time points [3] | number of time points [4] | number of time points [5] | number of time points [6] | number of time points [7] | number of time points [8] | number of time points [9] | number of time points [10] | number of time points [11] | number of time points [12] | number of time points [13] | number of time points [14] | number of time points [15] | number of time points [16] | number of time points [17] | number of time points [18] | number of time points [19] | number of time points [20] |
| --- | --- | --- | --- | --- | --- | --- | --- | --- | --- | --- | --- | --- | --- | --- | --- | --- | --- | --- | --- | --- |
| C=CC(=O)Nc1cc(Nc2nccc(-c3cn(C)c4ccccc34)n2)c(OC)cc1N(C)CCNC [AZ7550 Mesylate] (2.5 µM) | 0 | 0 | 0 | 4 | 0 | 0 | 0 | 0 | 3 | 0 | 0 | 0 | 0 | 0 | 0 | 0 | 0 | 0 | 1 | 0 |
| O=C1Nc2ccc(I)cc2/C1=C/c1cc(Br)c(O)c(Br)c1 (10 µM) | 0 | 0 | 1 | 2 | 1 | 0 | 0 | 0 | 0 | 1 | 0 | 1 | 0 | 3 | 0 | 1 | 1 | 0 | 0 | 0 |
